# According to the supplement of paper PMC8007513:
# This is one part of the list. Single values are uncertain, as repeats are few or missing.
# Test system: Saccharomyces cerevisiae BY4743
# Assay: growth (OD600) with compound + IPBC relative to untreated control; higher = less growth inhibition
# Conditions: compound concentration: 133 uM; IPBC concentration: 0.5 ug/ml; 20 h
# Procedure: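 NMCCC compounds (133 uM) combined with IPBC (0.5 ug/ml) against Saccharomyces cerevisiae BY4743 in YPD, 96-well plates. Growth was read as OD600 at 20 h and expressed as % of the untreated control. Single pass.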
row,Compound,growth [%]
1,CC(C)CNC(=O)c1cc(-c2ccc(Cl)c(Cl)c2)on1 + CCCCNC(=O)OCC#CI [3-iodo-2-propynyl butylcarbamate (IPBC)],94.9
2,CNC(=O)C(c1ccc(Cl)cc1)N(C)Cc1cc2c(cc1Br)OCCO2 (configuration not stated) + CCCCNC(=O)OCC#CI [3-iodo-2-propynyl butylcarbamate (IPBC)],102
3,CCS\C1=N\C2=CC=CC=C2C(=O)N1C3=CC=CN=C3 + CCCCNC(=O)OCC#CI [3-iodo-2-propynyl butylcarbamate (IPBC)],99.3
4,Cc1nc2ncnn2c(O)c1Cc1ccccc1Cl + CCCCNC(=O)OCC#CI [3-iodo-2-propynyl butylcarbamate (IPBC)],112
5,Cn1ccc(NC(=O)CCCc2nc(O)c3ccccc3n2)n1 + CCCCNC(=O)OCC#CI [3-iodo-2-propynyl butylcarbamate (IPBC)],107
6,CC(Oc1ccc(Cl)cc1Cl)C(=O)Nc1ccc(S(=O)(=O)N2CCOCC2)cc1 (configuration not stated) + CCCCNC(=O)OCC#CI [3-iodo-2-propynyl butylcarbamate (IPBC)],101
7,Cc1ccc(-c2nc(CC(=O)OCC(=O)c3ccc[nH]3)cs2)cc1 + CCCCNC(=O)OCC#CI [3-iodo-2-propynyl butylcarbamate (IPBC)],100
8,Cc1noc2ncnc(NC(C)CCc3ccccc3)c12 (configuration not stated) + CCCCNC(=O)OCC#CI [3-iodo-2-propynyl butylcarbamate (IPBC)],106
9,CCCc1cc(O)nc(SCC(=O)N2CCc3sccc3C2)n1 + CCCCNC(=O)OCC#CI [3-iodo-2-propynyl butylcarbamate (IPBC)],104
10,CCOC(=O)COc1ccc2c(c1)c(C(C)=O)c(C)n2-c1ccc(Cl)cc1 + CCCCNC(=O)OCC#CI [3-iodo-2-propynyl butylcarbamate (IPBC)],80.6
11,COC(=O)CCCC(=O)NC(c1ccc(Cl)cc1)c1nnc(-c2ccccc2)o1 (configuration not stated) + CCCCNC(=O)OCC#CI [3-iodo-2-propynyl butylcarbamate (IPBC)],94.9
12,Cc1ccc(C(=O)c2sc(Nc3ccccc3)nc2N)c(C)c1 + CCCCNC(=O)OCC#CI [3-iodo-2-propynyl butylcarbamate (IPBC)],96.5
13,COC1=CC=C2[N]3CC\N=C(NCCO)/C3=CC2=C1 + CCCCNC(=O)OCC#CI [3-iodo-2-propynyl butylcarbamate (IPBC)],97.7
14,CC\C1=N\N(CC(O)=O)C(=O)C2=CC3=C(C=CS3)[N]12 + CCCCNC(=O)OCC#CI [3-iodo-2-propynyl butylcarbamate (IPBC)],97.1
15,CCN(C(=O)c1cccc2c1SCCC2=O)c1cc(Cl)ccc1OC + CCCCNC(=O)OCC#CI [3-iodo-2-propynyl butylcarbamate (IPBC)],101
16,Cc1ccc(S(=O)(=O)CCc2nc(S(=O)(=O)c3ccc(C)cc3)c(N(C)C)o2)cc1 + CCCCNC(=O)OCC#CI [3-iodo-2-propynyl butylcarbamate (IPBC)],87.9
17,COc1ccccc1NC(=O)c1ccc(NC(=O)CSc2ccccn2)cc1 + CCCCNC(=O)OCC#CI [3-iodo-2-propynyl butylcarbamate (IPBC)],104
18,CC(Nc1cccc(C(N)=O)c1)C(=O)N1CCN(C(=O)c2ccco2)CC1 (configuration not stated) + CCCCNC(=O)OCC#CI [3-iodo-2-propynyl butylcarbamate (IPBC)],104
19,CCOC(=O)N1CCN(c2ncc3c(n2)CCCC3=O)CC1 + CCCCNC(=O)OCC#CI [3-iodo-2-propynyl butylcarbamate (IPBC)],109
20,CCOC(=O)N1CCN(CC1)C(=O)C2C\C(=N/O2)C3=CC=CC(=C3OC)OC (configuration not stated) + CCCCNC(=O)OCC#CI [3-iodo-2-propynyl butylcarbamate (IPBC)],109
21,Cc1cc(COC(=O)c2ccccc2NC(=O)c2ccsc2)no1 + CCCCNC(=O)OCC#CI [3-iodo-2-propynyl butylcarbamate (IPBC)],98.5
22,COC/1=C/C(=O)N(/N=C1C(=O)NC2=CC=C(F)C(=C2)C(F)(F)F)C3=CC=C(C)C=C3 + CCCCNC(=O)OCC#CI [3-iodo-2-propynyl butylcarbamate (IPBC)],91.9

# Nos. 1 to 5 from above:
row,Compound,growth [%]
1,CC(C)CNC(=O)c1cc(-c2ccc(Cl)c(Cl)c2)on1 + CCCCNC(=O)OCC#CI [3-iodo-2-propynyl butylcarbamate (IPBC)],94.9
2,CNC(=O)C(c1ccc(Cl)cc1)N(C)Cc1cc2c(cc1Br)OCCO2 (configuration not stated) + CCCCNC(=O)OCC#CI [3-iodo-2-propynyl butylcarbamate (IPBC)],102
3,CCS\C1=N\C2=CC=CC=C2C(=O)N1C3=CC=CN=C3 + CCCCNC(=O)OCC#CI [3-iodo-2-propynyl butylcarbamate (IPBC)],99.3
4,Cc1nc2ncnn2c(O)c1Cc1ccccc1Cl + CCCCNC(=O)OCC#CI [3-iodo-2-propynyl butylcarbamate (IPBC)],112
5,Cn1ccc(NC(=O)CCCc2nc(O)c3ccccc3n2)n1 + CCCCNC(=O)OCC#CI [3-iodo-2-propynyl butylcarbamate (IPBC)],107
